The supplement of paper PMC8728848
Some of the results follow.

How the values were obtained:
Test in all cases: glycan array binding signal (z-score within array); higher = stronger binding
Settings in all cases: glycan notation: IUPAC condensed, linker removed
Gal(a1-3)Gal = target: Gal(a1-3)Gal
Procedure, shortened: (§1)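 The Consortium for Functional Glycomics database supplied 3228 glycan arrays, of which those lacking an available protein sequence were dropped. The binding signal, a within-array Z-score, was averaged across arrays of the same protein sequence and across linkers. Negative scores can be read as non-binding.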

Gal(a1-3)Gal(b1-3)GlcNAc = target: Gal(a1-3)Gal(b1-3)GlcNAc
Procedure, shortened: as §1

[1] = target: Gal(a1-3)Gal(b1-3)GlcNAc(b1-2)Man(a1-3)[Gal(a1-3)Gal(b1-3)GlcNAc(b1-2)Man(a1-6)]Man(b1-4)GlcNAc(b1-4)GlcNAc
Procedure, shortened: as §1

[2] = target: Gal(a1-3)Gal(b1-3)GlcNAc(b1-3)GalNAc
Procedure, shortened: as §1

[3] = target: Gal(a1-3)Gal(b1-3)[Fuc(a1-4)]GlcNAc(b1-2)Man(a1-3)[Gal(a1-3)Gal(b1-3)[Fuc(a1-4)]GlcNAc(b1-2)Man(a1-6)]Man(b1-4)GlcNAc(b1-4)GlcNAc
Procedure, shortened: as §1

Gal(a1-3)Gal(b1-4)Glc = target: Gal(a1-3)Gal(b1-4)Glc
Procedure, shortened: as §1

Gal(a1-3)Gal(b1-4)GlcNAc = target: Gal(a1-3)Gal(b1-4)GlcNAc
Procedure, shortened: as §1

[4] = target: Gal(a1-3)Gal(b1-4)GlcNAc(b1-3)GalNAc
Procedure, shortened: as §1

[5] = target: Gal(a1-3)Gal(b1-4)[Fuc(a1-3)]GlcNAc
Procedure, shortened: as §1

[6] = target: Gal(a1-3)Gal(b1-4)[Fuc(a1-3)]GlcNAc(b1-2)Man(a1-3)[Gal(a1-3)Gal(b1-4)[Fuc(a1-3)]GlcNAc(b1-2)Man(a1-6)]Man(b1-4)GlcNAc(b1-4)GlcNAc
Procedure, shortened: as §1

Gal(a1-3)GalNAc = target: Gal(a1-3)GalNAc
Procedure, shortened: as §1

[7] = target: Gal(a1-3)[Gal(a1-4)]Gal(b1-4)GlcNAc
Procedure, shortened: as §1

[8] = target: Gal(a1-4)Gal(b1-3)GlcNAc(b1-2)Man(a1-3)[Gal(a1-4)Gal(b1-3)GlcNAc(b1-2)Man(a1-6)]Man(b1-4)GlcNAc(b1-4)GlcNAc
Procedure, shortened: as §1

Gal(a1-4)Gal(b1-4)Glc = target: Gal(a1-4)Gal(b1-4)Glc
Procedure, shortened: as §1

Gal(a1-4)Gal(b1-4)GlcNAc = target: Gal(a1-4)Gal(b1-4)GlcNAc
Procedure, shortened: as §1

[9] = target: Gal(a1-4)Gal(b1-4)GlcNAc(b1-2)Man(a1-3)[Gal(a1-4)Gal(b1-4)GlcNAc(b1-2)Man(a1-6)]Man(b1-4)GlcNAc(b1-4)GlcNAc
Procedure, shortened: as §1

[10] = target: Gal(a1-4)Gal(b1-4)GlcNAc(b1-3)Gal(b1-4)Glc
Procedure, shortened: as §1

Gal(a1-4)GlcNAc = target: Gal(a1-4)GlcNAc
Procedure, shortened: as §1

Gal(a1-6)Glc = target: Gal(a1-6)Glc
Procedure, shortened: as §1

Gal(b1-2)Gal = target: Gal(b1-2)Gal
Procedure, shortened: as §1

Gal(b1-3)Gal = target: Gal(b1-3)Gal
Procedure, shortened: as §1

Gal(b1-3)Gal(b1-4)GlcNAc = target: Gal(b1-3)Gal(b1-4)GlcNAc
Procedure, shortened: as §1

[11] = target: Gal(b1-3)Gal(b1-4)GlcNAc(b1-2)Man(a1-3)[Gal(b1-3)Gal(b1-4)GlcNAc(b1-2)Man(a1-6)]Man(b1-4)GlcNAc(b1-4)GlcNAc
Procedure, shortened: as §1

Gal(b1-3)GalNAc = target: Gal(b1-3)GalNAc
Procedure, shortened: as §1

[12] = target: Gal(b1-3)GalNAc(a1-3)[Fuc(a1-2)]Gal(b1-4)Glc
Procedure, shortened: as §1

[13] = target: Gal(b1-3)GalNAc(a1-3)[Fuc(a1-2)]Gal(b1-4)GlcNAc
Procedure, shortened: as §1

[14] = target: Gal(b1-3)GalNAc(b1-3)Gal(a1-4)Gal(b1-4)Glc
Procedure, shortened: as §1

[15] = target: Gal(b1-3)GalNAc(b1-4)Gal(b1-4)Glc
Procedure, shortened: as §1

[16] = target: Gal(b1-3)GalNAc(b1-4)[Neu5Ac(a2-3)]Gal(b1-4)Glc
Procedure, shortened: as §1

Gal(b1-3)GlcNAc = target: Gal(b1-3)GlcNAc
Procedure, shortened: as §1

B1: NanH (Corynebacterium diphtheriae), C6JSW6 (protein)
chain: MYSSNRTYSRAILGLSAVLTLSFTSLVAPVNAEEPETVVPATAELEGEVAATLPSAETGLLDAAPPKPVARGAAGDLQLPAVNEKEVFEEGRVIRAPEPDQSRCYRIPALVTAKNGDLLLAFDNRYGGGDGAKTWCRDAPYENMKRINRQNMQTDIQLYRSVDNGQSFEDFGYIAQGTADVRELSYTDPALVTDRTTGKIFAFFVRAYDYRVGQSSAGFNEGDVEAEIQKRDVQDTVVVESLDGGQTWGNMRLLSALTAKVSSISTGDTIFDGRGRFVTSGAGIQLQYGEHAGRLIVPISVDIDPKDSAKFINLAIYSDDHGQTWQAGIGTAGGAGFSGDVSKIVELSDGRLMMSSKDNDKPRWVSYSEDQGENWSTPKRKIIAPPQHPEKHNTGINVGLIRAYPNAPENSAAARVLLYSAPIDQRYSHKHTEDGRNNGWVMGSCDDGKTWSFGRQIEKNRFQYSSMTVMSDGNIGMVYESGDFSTGMNLKFAKFNMAWLGADCHSNEALGLTGDIDKEIVEAQEKAAEATKEAQEAAEKVQKLTEELAAARKENDELKNQVKGFKEAVGDLANEAEDLADKVFKLETAVTEAKEKATVAEKAASDAVTQLQKAESIAEEQKAKAESAAAEAQALREKLERLEGSILTVKENPEAEEIADLSSTAKDAADAARRAATDANGALSGQKQDEEKPAMGLMGILKVLAGIIPLVAIIATIFQTFRLPFNIPGMR
**Q.** For B1, which “glycan array binding signal (z-score)” value (Gal(a1-3)Gal) is on record?
**A.** 1.1

**Q.** What about the “glycan array binding signal (z-score)” value (Gal(a1-3)Gal(b1-3)GlcNAc) of the same binder?
**A.** 0.873

**Q.** And the “glycan array binding signal (z-score)” value [1]?
**A.** 1.19

**Q.** What about the “glycan array binding signal (z-score)” value [2] of the same binder?
**A.** -1.11

**Q.** What about the “glycan array binding signal (z-score)” value [3] of the same binder?
**A.** 0.712

**Q.** And the “glycan array binding signal (z-score)” value (Gal(a1-3)Gal(b1-4)Glc)?
**A.** -0.275

**Q.** What about the “glycan array binding signal (z-score)” value (Gal(a1-3)Gal(b1-4)GlcNAc) of the same binder?
**A.** 0.369

**Q.** And the “glycan array binding signal (z-score)” value [4]?
**A.** -0.788

**Q.** And the “glycan array binding signal (z-score)” value [5]?
**A.** -0.653

**Q.** What about the “glycan array binding signal (z-score)” value [6] of the same binder?
**A.** 0.405

**Q.** And the “glycan array binding signal (z-score)” value (Gal(a1-3)GalNAc)?
**A.** -0.569

**Q.** And the “glycan array binding signal (z-score)” value [7]?
**A.** 0.396

**Q.** And the “glycan array binding signal (z-score)” value [8]?
**A.** -1.17

**Q.** And the “glycan array binding signal (z-score)” value (Gal(a1-4)Gal(b1-4)Glc)?
**A.** -0.865

**Q.** And the “glycan array binding signal (z-score)” value (Gal(a1-4)Gal(b1-4)GlcNAc)?
**A.** 0.209

**Q.** And the “glycan array binding signal (z-score)” value [9]?
**A.** -0.762

**Q.** What about the “glycan array binding signal (z-score)” value [10] of the same binder?
**A.** 0.362

**Q.** What about the “glycan array binding signal (z-score)” value (Gal(a1-4)GlcNAc) of the same binder?
**A.** -0.105

**Q.** What about the “glycan array binding signal (z-score)” value (Gal(a1-6)Glc) of the same binder?
**A.** -0.801

**Q.** And the “glycan array binding signal (z-score)” value (Gal(b1-2)Gal)?
**A.** 2.93

**Q.** What about the “glycan array binding signal (z-score)” value (Gal(b1-3)Gal) of the same binder?
**A.** -0.658

**Q.** What about the “glycan array binding signal (z-score)” value (Gal(b1-3)Gal(b1-4)GlcNAc) of the same binder?
**A.** 0.37

**Q.** What about the “glycan array binding signal (z-score)” value [11] of the same binder?
**A.** 0.074

**Q.** What about the “glycan array binding signal (z-score)” value (Gal(b1-3)GalNAc) of the same binder?
**A.** 0.582

**Q.** And the “glycan array binding signal (z-score)” value [12]?
**A.** 1.05

**Q.** And the “glycan array binding signal (z-score)” value [13]?
**A.** -0.002

**Q.** What about the “glycan array binding signal (z-score)” value [14] of the same binder?
**A.** 0.474

**Q.** And the “glycan array binding signal (z-score)” value [15]?
**A.** 1.25

**Q.** What about the “glycan array binding signal (z-score)” value [16] of the same binder?
**A.** -0.63

**Q.** What about the “glycan array binding signal (z-score)” value (Gal(b1-3)GlcNAc) of the same binder?
**A.** -0.038
